Results from the supplement of paper PMC10849652.
Some of the results follow.

Protein sequences, listed by entry. Tags and fused reporters are not part of them. Lines headed by an entry give the natural chain unless they say otherwise; changes in a name come on top.
UniProt Q04446: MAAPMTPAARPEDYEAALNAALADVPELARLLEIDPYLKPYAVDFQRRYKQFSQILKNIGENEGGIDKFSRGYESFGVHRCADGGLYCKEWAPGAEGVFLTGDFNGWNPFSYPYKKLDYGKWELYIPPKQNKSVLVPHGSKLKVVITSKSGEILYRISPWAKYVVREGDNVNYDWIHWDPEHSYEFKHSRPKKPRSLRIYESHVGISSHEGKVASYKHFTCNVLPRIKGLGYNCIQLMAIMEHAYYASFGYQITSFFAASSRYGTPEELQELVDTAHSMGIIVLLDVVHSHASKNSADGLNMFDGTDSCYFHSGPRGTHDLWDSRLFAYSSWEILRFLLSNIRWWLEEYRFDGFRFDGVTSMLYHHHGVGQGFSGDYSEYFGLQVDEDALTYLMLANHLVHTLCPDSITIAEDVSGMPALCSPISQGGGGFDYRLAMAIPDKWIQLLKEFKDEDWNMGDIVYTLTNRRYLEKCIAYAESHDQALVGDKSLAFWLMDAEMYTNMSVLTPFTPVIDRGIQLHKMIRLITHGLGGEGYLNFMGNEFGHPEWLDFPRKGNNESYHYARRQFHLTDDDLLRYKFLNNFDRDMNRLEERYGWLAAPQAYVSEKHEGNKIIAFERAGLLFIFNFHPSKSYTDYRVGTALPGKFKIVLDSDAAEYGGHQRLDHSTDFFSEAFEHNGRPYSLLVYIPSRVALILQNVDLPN
UniProt Q9H840: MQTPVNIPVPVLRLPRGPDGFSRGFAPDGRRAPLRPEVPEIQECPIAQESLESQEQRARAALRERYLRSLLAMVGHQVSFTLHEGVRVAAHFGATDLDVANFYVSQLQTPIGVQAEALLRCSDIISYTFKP
UniProt Q14697: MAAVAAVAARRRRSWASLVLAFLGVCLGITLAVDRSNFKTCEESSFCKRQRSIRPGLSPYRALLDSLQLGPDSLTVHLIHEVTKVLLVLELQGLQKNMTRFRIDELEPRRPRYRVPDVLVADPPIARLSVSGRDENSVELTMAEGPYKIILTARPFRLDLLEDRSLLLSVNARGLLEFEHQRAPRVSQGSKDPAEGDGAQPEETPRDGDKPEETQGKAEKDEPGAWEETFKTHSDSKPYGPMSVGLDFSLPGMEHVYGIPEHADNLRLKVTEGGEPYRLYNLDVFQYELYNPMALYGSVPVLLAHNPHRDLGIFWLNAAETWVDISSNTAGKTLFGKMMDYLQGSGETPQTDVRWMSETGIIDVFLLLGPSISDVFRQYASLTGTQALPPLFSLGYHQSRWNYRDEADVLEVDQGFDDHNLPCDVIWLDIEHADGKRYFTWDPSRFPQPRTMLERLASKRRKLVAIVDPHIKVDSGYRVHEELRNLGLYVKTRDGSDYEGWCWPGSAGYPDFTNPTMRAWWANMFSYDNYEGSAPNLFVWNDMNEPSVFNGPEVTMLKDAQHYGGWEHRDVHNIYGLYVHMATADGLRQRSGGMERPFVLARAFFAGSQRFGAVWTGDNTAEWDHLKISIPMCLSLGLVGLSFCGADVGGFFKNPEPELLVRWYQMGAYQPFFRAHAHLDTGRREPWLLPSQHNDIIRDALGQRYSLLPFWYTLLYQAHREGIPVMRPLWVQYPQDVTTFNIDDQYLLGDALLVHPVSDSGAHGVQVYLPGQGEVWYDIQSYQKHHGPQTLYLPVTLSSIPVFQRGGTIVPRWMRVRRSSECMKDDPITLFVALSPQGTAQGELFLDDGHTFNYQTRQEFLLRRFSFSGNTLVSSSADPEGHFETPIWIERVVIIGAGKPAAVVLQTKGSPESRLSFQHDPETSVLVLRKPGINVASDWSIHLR
UniProt Q9NWZ8: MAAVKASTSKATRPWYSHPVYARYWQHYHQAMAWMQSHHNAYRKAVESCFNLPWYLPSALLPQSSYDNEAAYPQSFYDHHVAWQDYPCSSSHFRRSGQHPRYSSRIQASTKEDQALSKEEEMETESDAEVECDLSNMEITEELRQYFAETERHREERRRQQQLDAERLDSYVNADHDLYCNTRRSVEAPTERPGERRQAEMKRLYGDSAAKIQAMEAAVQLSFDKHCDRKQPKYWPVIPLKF
UniProt P16383: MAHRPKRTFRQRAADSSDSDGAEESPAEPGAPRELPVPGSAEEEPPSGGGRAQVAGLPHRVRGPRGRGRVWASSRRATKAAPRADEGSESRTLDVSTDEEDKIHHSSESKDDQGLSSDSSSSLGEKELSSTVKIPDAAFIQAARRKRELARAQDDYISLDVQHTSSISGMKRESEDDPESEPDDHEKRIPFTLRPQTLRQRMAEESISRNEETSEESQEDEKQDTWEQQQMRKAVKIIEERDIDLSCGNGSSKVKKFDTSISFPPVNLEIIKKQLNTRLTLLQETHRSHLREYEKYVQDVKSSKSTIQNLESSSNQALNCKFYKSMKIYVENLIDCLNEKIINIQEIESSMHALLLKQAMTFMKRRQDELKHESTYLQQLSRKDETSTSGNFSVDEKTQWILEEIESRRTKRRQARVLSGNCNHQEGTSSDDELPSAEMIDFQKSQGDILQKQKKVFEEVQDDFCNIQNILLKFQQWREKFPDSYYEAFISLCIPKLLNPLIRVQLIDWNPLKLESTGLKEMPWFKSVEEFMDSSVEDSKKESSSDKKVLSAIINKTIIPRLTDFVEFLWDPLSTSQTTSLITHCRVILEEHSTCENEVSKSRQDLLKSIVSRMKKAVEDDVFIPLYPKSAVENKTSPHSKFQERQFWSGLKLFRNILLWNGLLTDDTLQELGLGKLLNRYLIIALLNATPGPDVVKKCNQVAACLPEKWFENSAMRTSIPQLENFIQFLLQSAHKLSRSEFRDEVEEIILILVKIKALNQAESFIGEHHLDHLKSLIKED
UniProt Q8WTR4: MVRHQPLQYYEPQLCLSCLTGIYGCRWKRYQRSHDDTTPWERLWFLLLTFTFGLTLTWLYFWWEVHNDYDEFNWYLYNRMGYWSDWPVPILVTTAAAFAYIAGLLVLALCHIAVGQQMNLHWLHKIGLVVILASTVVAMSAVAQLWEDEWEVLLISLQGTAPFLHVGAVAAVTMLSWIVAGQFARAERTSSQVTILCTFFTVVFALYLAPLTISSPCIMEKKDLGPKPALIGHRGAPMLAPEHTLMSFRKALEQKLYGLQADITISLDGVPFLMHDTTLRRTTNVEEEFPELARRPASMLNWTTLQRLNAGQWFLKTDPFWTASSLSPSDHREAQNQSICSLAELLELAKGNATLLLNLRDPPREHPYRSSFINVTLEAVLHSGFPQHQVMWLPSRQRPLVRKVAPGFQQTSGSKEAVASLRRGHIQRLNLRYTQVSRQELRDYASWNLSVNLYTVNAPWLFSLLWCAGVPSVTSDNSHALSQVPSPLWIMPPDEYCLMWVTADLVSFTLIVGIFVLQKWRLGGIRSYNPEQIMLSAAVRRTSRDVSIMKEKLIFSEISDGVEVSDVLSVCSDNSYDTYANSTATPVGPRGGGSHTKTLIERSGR
UniProt Q99988: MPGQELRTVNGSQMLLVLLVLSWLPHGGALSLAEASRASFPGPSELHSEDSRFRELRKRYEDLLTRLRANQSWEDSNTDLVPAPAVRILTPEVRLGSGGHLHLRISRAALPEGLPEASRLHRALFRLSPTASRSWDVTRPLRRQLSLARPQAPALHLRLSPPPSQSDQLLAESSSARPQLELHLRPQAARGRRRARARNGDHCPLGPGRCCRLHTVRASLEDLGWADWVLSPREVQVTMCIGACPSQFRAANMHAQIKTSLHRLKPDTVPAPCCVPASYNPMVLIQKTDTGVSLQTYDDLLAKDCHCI
UniProt Q5JV73, whole entry, looked up: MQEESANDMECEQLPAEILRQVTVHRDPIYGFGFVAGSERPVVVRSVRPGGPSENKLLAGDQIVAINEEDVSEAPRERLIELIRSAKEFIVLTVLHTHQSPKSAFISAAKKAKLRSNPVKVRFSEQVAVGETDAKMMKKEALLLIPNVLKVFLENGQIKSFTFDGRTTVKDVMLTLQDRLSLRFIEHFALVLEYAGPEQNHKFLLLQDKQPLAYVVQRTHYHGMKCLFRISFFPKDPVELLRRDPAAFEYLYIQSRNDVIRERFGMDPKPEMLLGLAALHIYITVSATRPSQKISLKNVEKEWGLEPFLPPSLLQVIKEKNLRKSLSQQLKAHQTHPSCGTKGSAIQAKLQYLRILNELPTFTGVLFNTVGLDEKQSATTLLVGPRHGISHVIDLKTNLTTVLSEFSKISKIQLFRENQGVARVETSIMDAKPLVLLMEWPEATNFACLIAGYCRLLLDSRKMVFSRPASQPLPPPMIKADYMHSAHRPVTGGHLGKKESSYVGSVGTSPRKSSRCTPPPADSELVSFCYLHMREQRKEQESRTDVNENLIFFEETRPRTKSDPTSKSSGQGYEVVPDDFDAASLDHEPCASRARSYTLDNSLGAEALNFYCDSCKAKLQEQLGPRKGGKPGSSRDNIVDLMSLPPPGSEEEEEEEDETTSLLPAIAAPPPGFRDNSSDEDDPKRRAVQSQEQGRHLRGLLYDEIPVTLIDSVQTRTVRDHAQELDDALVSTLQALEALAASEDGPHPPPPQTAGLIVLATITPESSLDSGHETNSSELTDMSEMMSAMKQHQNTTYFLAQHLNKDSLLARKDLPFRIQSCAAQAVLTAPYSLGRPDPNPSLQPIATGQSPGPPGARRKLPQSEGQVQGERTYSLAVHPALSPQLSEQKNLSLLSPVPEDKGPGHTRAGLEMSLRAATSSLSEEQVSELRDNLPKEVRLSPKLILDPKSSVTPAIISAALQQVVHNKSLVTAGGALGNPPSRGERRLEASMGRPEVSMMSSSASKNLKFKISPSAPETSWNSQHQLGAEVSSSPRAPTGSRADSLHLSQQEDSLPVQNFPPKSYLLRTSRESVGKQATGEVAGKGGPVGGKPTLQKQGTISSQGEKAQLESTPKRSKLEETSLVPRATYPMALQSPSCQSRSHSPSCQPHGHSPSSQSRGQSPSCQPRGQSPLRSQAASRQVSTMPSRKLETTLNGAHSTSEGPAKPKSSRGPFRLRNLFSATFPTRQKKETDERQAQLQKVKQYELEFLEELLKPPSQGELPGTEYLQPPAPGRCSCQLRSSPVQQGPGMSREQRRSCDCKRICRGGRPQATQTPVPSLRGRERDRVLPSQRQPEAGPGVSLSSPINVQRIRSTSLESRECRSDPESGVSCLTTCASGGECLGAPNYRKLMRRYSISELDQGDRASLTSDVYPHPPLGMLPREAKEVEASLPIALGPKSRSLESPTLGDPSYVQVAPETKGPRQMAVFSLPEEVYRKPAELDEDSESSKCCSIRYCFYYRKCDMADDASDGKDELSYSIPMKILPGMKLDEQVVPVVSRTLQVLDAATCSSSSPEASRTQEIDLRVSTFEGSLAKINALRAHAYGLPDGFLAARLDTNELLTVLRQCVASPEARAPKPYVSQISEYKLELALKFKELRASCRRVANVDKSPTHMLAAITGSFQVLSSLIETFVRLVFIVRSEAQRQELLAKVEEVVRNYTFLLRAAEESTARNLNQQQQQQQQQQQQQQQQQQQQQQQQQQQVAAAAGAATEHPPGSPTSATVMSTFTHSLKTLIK
UniProt Q969S9: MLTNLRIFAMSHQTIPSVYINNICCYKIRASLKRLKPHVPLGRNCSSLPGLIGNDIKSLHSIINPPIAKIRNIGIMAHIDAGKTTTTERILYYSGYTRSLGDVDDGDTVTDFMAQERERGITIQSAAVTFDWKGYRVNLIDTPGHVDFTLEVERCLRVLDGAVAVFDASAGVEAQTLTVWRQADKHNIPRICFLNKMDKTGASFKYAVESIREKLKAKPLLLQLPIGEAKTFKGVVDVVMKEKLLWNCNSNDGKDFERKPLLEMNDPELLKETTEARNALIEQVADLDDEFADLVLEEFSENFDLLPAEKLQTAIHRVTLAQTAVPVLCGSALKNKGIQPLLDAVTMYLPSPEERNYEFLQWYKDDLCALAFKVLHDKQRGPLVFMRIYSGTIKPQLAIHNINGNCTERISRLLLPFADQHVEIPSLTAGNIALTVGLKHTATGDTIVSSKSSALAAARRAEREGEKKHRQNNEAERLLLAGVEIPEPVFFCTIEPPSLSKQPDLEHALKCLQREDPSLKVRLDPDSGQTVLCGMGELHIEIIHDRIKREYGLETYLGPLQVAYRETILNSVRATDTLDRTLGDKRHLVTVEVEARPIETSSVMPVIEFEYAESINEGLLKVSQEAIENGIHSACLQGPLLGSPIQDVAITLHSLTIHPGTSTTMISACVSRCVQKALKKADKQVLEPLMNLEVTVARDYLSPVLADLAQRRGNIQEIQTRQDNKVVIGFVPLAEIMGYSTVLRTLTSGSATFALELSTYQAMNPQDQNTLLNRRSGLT

Columns and labels:
Assay in all cases: log2 fold change, soluble protein after heating vs DMSO (PISA); higher = thermal stabilisation; K562 cells, 10 uM, 30 min; active = over 0.2 and 3.5 SD of the protein, either way, in both replicates (recomputed)
[1] = compound: CC1=C(C=C(C=C1)NC(=O)C2=CC(=CC=C2)N(C)C)NC(=O)C3=CC=C(C=C3)O
Procedure, shortened: (§1)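 Soluble protein was defined as the supernatant after 21,000xg for 90 min. It came from K562 cells at 2×10^6 cells/mL given 10 μM compound for 30 min, heated in aliquots for 3 min across 48°C-58°C, pooled, and extracted in PBS with 0.5% NP-40 at 4°C, and was quantified by TMTpro 16plex LC-MS/MS with equalised channel sums. Thermal stability against control samples, from duplicates, is reported as log2 fold change.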

[2] = compound: CC1=CC=C(C=C1)SC2=C3C=C(SC3=CN=C2)C(=O)N
Procedure, shortened: as §1

[3] = compound: CC1=NC(=CC=C1)C2=C(N=C(N2)C(C)(C)C)C3=CC4=NC=CN=C4C=C3
Procedure, shortened: as §1

Nexturastat A = compound: CCCCN(Cc1ccc(C(=O)NO)cc1)C(=O)Nc1ccccc1 [Nexturastat A]
Procedure, shortened: as §1

vemurafenib = compound: CCCS(=O)(=O)Nc1ccc(F)c(C(=O)c2c[nH]c3ncc(-c4ccc(Cl)cc4)cc23)c1F [vemurafenib]
Procedure, shortened: as §1

[4] = compound: CCCS(=O)(=O)Nc1ccc(F)c(C(=O)c2c[nH]c3ncc(Cl)cc23)c1F
Procedure, shortened: as §1

[5] = compound: CCCc1cc(C)[nH]c(=O)c1CNC(=O)c1cc(-c2ccnc(N3CCN(C)CC3)c2)cc2c1cnn2C(C)C
Procedure, shortened: as §1

givinostat = compound: CCN(CC)Cc1ccc2cc(COC(=O)Nc3ccc(C(=O)NO)cc3)ccc2c1 [givinostat]
Procedure, shortened: as §1

barasertib = compound: CCN(CCCOc1ccc2c(Nc3cc(CC(=O)Nc4cccc(F)c4)[nH]n3)ncnc2c1)CCOP(=O)(O)O [barasertib]
Procedure, shortened: as §1

Measured: log2 fold change

GBE1 (UniProt Q04446)
inactive: [1] 0.08 | [2] 0.128 | [3] 0.014 | Nexturastat A 0 | vemurafenib 0.162 | [4] 0.065 | [5] 0.005 | givinostat 0.038 | barasertib 0.109

GEMIN7 (UniProt Q9H840)
inactive: Nexturastat A -0.12 | [5] 0.088 | givinostat -0.285

G6PC3 (UniProt Q9BUM1)
inactive: [2] -0.059 | vemurafenib 0.081 | [4] 0.159 | [5] -0.042 | givinostat 0.093

GANAB (UniProt Q14697)
inactive: [2] -0.786 | [4] -0.774 | [5] 0.607

GEMIN8 (UniProt Q9NWZ8)
inactive: [2] -0.136 | Nexturastat A 0.156 | vemurafenib 0 | [4] 0.19 | givinostat -0.056

GCFC2 isoform 3 (UniProt P16383)
inactive: [2] -0.014 | vemurafenib 0.149 | [4] -0.127 | givinostat 0.139

GCC1 (UniProt Q96CN9)
inactive: [1] -0.081 | [3] -0.2 | Nexturastat A -0.036 | givinostat 0.16

FZR1 (UniProt Q9UM11)
inactive: [3] -0.15

GDPD5 (UniProt Q8WTR4)
inactive: [3] 0.187 | Nexturastat A 0.066 | barasertib 0.161

GFAP isoform 2 (UniProt P14136)
inactive: [5] -0.227

GDF15 (UniProt Q99988)
inactive: [1] -0.03 | [2] -0.059 | [3] 0.018 | vemurafenib -0.024 | [4] -0.111 | [5] 0.1 | barasertib -0.148

GALNT7 (UniProt H0YAH3)
inactive: [3] 0.14 | Nexturastat A 0.293 | vemurafenib 0.121 | barasertib -0.025

FRMPD3 (UniProt Q5JV73)
inactive: [1] -0.008 | Nexturastat A 0.207 | vemurafenib -0.324 | givinostat -0.066 | barasertib 0.112

GFM2 (UniProt Q969S9)
inactive: [5] 0.177 | barasertib -0.022
